In one assay the target is Myc-MSX1 (human) (UniProt P28360). As to the kind of experiment: co-IP; Myc-MSX1 and HA-USP11 co-transfected in HEK293 cells; lysates in RIPA buffer immunoprecipitated with anti-Myc or anti-HA antibodies at 4 °C overnight, protein agarose beads, immunoblot; cells treated with MG132 for 6 h prior to harvest. (In general: In western blotting, separated proteins are transferred to a membrane and probed.)

The chains behind the UniProt entries cited, without tags or fusion partners.
UniProt P28360: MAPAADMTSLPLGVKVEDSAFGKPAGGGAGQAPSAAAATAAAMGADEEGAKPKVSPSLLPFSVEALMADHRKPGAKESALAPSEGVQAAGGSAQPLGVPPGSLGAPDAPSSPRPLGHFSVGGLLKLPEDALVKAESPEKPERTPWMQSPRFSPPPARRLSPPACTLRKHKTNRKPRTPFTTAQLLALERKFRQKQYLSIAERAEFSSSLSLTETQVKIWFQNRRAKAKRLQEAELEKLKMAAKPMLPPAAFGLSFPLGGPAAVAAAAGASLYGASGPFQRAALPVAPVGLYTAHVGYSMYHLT
UniProt P51784: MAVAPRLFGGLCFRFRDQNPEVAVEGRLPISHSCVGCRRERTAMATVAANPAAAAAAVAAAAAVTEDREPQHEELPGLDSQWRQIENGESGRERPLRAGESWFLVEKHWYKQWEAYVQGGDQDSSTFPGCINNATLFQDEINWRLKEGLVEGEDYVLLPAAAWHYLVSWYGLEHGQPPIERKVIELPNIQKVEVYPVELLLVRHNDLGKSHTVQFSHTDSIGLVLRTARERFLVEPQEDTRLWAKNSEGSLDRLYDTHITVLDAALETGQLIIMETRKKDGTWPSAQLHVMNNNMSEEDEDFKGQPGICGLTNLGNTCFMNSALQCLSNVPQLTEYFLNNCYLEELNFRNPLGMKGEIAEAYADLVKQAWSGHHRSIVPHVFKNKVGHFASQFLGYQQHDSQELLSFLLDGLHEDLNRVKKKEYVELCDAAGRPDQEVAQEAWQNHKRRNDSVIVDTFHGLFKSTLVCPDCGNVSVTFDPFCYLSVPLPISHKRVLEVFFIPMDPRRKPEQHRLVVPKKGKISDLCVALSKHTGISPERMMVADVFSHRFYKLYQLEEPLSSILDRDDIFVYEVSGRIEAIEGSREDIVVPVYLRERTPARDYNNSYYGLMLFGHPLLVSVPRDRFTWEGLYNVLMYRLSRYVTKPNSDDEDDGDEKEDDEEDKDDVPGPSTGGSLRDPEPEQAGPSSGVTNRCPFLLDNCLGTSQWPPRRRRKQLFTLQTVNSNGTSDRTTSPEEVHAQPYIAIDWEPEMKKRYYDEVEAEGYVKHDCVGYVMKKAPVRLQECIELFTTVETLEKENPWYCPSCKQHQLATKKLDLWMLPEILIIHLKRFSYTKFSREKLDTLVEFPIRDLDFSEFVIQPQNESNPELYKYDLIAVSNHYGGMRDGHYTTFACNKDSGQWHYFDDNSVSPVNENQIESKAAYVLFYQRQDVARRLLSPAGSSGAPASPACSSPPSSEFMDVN

The target of assay [1] is ubiquitin-specific protease 11 (USP11), endogenous in hMSCs (human (endogenous in hMSCs)) (UniProt P51784). Kind of assay: co-IP; endogenous proteins; hMSC lysates in RIPA buffer immunoprecipitated with anti-MSX1 or anti-USP11 antibodies at 4 °C overnight, protein agarose beads, immunoblot; cells treated with MG132 for 6 h prior to harvest.
The target in the next assay is HA-USP11 (UniProt P51784). Kind of assay: co-IP; Myc-MSX1 and HA-USP11 co-transfected in HEK293 cells; lysates in RIPA buffer immunoprecipitated with anti-Myc or anti-HA antibodies at 4 °C overnight, protein agarose beads, immunoblot; cells treated with MG132 for 6 h prior to harvest.
The target of assay [2] is Msh homeobox 1 (MSX1), endogenous in hMSCs (human (endogenous in hMSCs)) (UniProt P28360). As to the kind of experiment: co-IP; endogenous proteins; hMSC lysates in RIPA buffer immunoprecipitated with anti-MSX1 or anti-USP11 antibodies at 4 °C overnight, protein agarose beads, immunoblot; cells treated with MG132 for 6 h prior to harvest.

No constants are given. Whether binding was seen depends on the method and setting. In cells and extracts the contact can be indirect. Some binding calls cover weakened binding; strength is not graded here.

For “HA-USP11 (from UniProt P51784 1-963) (enzyme)”, the binding result in the assay with Myc-MSX1 (human) was “binds”.
For the substance “Msh homeobox 1 (MSX1), endogenous in hMSCs (from UniProt P28360 1-303)”, the binding entry in assay [1] was “binds”.
Consider Myc-MSX1 (from UniProt P28360 1-303), for which the binding result with HA-USP11 is “binds”.
“ubiquitin-specific protease 11 (USP11), endogenous in hMSCs (from UniProt P51784 1-963) (enzyme)”: the binding result in assay [2] is listed as “binds”.

Source of the values: publication PMC8778097.
